Measurements taken from paper PMC8833913.
No constants are given. Whether binding was seen depends on the method and setting. In cells and extracts the contact can be indirect. Some entries that bind do so weakly or less than the wild type.

Amino acid sequences for entries named in this document (tags omitted).
UniProt P40337: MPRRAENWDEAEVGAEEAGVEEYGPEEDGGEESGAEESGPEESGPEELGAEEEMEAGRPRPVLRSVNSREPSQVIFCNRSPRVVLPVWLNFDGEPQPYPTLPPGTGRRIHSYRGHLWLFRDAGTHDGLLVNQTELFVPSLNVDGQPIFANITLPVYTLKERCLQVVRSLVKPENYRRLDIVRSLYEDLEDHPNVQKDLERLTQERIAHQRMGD

Molecular target: T1, nuclear factor kappa B subunit 2 (NFKB2) (human (endogenous in 786-O)) (UniProt Q00653)
T1 sequence: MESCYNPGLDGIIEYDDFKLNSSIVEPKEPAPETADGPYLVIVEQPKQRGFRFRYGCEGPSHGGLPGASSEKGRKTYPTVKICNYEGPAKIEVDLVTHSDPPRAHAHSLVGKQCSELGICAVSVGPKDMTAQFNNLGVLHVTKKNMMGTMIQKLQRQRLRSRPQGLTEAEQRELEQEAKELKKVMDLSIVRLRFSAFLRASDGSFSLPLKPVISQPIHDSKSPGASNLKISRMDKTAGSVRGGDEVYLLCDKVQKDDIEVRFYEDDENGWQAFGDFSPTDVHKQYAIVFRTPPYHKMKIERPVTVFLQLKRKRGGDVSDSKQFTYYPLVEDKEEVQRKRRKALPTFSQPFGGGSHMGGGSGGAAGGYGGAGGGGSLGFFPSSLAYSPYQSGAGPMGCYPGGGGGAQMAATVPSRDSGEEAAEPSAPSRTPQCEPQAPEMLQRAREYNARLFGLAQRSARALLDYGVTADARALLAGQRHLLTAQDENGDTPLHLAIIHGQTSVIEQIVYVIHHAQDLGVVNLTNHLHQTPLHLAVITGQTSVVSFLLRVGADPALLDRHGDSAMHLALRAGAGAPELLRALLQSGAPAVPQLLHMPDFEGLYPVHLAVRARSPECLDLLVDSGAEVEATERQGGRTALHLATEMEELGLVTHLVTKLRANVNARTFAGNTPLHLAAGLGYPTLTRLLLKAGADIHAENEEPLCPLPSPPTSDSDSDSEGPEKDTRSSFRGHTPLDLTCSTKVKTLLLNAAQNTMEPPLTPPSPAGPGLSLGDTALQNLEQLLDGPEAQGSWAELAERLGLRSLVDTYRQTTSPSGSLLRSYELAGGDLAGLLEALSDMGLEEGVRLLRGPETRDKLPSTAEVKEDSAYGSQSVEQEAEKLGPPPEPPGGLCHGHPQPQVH
Experiment: co-IP; lysates of 786-O-Ctrl and 786-O-VHL cells immunoprecipitated overnight with anti-NFKB2 (1:100) or control IgG, Protein G Sepharose 1 h, three washes with cell lysis buffer, immunoblot with anti-NFKB2 or anti-VHL

binding: binds
Substance: HA-tagged human VHL protein (von Hippel-Lindau) (from UniProt P40337 1-213)
